Data from paper PMC5146280.
No constants are given. Whether binding was seen depends on the method and setting. In cells and extracts the contact can be indirect. Some entries that bind do so weakly or less than the wild type.

Amino acid sequences for entries named in this document (tags omitted).
UniProt O43474: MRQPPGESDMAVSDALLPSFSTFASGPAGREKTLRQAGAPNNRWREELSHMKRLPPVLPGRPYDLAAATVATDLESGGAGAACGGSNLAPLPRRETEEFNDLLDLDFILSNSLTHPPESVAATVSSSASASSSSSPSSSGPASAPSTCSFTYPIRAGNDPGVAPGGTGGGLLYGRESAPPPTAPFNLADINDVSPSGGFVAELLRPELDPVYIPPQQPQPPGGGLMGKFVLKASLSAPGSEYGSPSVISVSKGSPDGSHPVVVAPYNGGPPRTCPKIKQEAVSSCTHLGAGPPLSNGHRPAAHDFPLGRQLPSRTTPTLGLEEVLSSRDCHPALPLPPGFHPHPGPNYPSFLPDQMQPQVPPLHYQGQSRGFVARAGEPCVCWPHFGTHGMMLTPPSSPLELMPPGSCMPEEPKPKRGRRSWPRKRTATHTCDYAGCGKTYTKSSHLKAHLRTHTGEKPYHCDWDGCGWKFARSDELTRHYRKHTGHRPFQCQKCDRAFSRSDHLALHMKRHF
UniProt Q8TAQ2: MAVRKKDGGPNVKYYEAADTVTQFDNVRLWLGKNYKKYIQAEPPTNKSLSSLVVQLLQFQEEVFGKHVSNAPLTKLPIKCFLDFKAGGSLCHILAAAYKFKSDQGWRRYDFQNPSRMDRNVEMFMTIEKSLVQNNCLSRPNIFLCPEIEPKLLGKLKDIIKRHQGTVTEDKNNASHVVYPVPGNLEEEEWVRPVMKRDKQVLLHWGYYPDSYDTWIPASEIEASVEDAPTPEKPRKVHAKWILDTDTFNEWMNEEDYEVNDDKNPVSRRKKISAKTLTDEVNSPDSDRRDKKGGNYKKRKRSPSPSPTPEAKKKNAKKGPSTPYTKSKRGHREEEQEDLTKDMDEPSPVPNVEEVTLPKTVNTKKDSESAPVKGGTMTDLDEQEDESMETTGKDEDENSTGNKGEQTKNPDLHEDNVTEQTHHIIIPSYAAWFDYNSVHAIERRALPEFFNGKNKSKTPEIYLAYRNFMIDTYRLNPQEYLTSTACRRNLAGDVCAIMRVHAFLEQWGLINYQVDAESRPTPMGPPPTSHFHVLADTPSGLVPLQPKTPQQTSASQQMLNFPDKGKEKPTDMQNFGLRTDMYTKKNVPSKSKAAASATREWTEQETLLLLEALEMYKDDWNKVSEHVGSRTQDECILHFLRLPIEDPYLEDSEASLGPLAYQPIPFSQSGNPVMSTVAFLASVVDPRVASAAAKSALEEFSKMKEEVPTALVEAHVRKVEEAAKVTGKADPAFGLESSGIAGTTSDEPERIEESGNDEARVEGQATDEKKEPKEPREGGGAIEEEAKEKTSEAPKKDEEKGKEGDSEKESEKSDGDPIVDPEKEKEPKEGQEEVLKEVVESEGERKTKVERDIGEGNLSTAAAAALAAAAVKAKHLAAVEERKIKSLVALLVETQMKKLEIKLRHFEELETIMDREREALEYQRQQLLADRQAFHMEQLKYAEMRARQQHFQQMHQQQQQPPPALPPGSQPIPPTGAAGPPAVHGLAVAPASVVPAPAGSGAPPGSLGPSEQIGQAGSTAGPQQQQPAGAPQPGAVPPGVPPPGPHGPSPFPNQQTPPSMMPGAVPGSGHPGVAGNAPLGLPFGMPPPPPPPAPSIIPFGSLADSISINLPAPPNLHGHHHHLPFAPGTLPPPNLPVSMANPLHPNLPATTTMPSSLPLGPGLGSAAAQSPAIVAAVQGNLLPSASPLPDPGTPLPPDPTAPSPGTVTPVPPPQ
UniProt P51532: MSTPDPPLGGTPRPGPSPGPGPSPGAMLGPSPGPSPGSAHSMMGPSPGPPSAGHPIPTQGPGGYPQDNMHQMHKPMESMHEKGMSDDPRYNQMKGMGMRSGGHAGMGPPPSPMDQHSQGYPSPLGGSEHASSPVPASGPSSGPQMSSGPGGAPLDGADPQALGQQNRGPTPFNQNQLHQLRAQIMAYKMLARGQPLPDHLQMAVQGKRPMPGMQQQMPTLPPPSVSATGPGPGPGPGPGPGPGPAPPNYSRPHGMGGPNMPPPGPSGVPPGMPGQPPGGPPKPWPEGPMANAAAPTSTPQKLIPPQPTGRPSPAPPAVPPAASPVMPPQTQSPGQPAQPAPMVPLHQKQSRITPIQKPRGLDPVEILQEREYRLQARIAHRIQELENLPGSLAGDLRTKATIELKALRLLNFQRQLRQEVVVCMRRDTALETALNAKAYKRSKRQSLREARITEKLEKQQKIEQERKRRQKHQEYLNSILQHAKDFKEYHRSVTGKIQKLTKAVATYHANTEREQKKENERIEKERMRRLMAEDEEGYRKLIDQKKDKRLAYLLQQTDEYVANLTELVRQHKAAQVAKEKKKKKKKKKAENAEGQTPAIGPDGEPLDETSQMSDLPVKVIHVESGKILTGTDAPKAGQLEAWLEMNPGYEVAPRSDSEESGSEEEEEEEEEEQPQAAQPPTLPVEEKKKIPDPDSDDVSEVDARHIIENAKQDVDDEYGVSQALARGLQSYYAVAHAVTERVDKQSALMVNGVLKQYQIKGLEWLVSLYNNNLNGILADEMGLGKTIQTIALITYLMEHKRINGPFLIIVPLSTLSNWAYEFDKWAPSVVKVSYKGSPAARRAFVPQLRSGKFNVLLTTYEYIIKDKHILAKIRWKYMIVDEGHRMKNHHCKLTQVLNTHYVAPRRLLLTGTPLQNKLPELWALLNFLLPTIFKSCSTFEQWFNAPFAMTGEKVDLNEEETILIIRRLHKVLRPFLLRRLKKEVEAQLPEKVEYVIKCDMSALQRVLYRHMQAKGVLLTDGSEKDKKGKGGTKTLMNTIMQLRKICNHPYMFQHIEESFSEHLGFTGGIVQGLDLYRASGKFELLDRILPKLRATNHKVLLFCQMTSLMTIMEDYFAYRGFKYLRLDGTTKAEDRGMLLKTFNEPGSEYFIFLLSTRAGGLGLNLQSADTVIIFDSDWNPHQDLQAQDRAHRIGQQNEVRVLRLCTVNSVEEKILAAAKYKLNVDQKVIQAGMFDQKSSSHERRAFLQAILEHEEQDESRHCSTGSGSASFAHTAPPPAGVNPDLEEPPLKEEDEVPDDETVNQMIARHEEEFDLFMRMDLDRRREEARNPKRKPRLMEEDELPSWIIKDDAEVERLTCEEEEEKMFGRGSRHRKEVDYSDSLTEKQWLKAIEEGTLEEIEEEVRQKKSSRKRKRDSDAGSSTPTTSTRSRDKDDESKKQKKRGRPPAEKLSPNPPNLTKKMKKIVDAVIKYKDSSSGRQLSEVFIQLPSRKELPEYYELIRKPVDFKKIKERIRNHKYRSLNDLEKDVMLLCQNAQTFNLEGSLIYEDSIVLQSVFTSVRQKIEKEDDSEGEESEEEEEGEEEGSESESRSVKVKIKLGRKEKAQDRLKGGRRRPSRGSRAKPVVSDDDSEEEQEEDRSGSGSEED
UniProt P51531: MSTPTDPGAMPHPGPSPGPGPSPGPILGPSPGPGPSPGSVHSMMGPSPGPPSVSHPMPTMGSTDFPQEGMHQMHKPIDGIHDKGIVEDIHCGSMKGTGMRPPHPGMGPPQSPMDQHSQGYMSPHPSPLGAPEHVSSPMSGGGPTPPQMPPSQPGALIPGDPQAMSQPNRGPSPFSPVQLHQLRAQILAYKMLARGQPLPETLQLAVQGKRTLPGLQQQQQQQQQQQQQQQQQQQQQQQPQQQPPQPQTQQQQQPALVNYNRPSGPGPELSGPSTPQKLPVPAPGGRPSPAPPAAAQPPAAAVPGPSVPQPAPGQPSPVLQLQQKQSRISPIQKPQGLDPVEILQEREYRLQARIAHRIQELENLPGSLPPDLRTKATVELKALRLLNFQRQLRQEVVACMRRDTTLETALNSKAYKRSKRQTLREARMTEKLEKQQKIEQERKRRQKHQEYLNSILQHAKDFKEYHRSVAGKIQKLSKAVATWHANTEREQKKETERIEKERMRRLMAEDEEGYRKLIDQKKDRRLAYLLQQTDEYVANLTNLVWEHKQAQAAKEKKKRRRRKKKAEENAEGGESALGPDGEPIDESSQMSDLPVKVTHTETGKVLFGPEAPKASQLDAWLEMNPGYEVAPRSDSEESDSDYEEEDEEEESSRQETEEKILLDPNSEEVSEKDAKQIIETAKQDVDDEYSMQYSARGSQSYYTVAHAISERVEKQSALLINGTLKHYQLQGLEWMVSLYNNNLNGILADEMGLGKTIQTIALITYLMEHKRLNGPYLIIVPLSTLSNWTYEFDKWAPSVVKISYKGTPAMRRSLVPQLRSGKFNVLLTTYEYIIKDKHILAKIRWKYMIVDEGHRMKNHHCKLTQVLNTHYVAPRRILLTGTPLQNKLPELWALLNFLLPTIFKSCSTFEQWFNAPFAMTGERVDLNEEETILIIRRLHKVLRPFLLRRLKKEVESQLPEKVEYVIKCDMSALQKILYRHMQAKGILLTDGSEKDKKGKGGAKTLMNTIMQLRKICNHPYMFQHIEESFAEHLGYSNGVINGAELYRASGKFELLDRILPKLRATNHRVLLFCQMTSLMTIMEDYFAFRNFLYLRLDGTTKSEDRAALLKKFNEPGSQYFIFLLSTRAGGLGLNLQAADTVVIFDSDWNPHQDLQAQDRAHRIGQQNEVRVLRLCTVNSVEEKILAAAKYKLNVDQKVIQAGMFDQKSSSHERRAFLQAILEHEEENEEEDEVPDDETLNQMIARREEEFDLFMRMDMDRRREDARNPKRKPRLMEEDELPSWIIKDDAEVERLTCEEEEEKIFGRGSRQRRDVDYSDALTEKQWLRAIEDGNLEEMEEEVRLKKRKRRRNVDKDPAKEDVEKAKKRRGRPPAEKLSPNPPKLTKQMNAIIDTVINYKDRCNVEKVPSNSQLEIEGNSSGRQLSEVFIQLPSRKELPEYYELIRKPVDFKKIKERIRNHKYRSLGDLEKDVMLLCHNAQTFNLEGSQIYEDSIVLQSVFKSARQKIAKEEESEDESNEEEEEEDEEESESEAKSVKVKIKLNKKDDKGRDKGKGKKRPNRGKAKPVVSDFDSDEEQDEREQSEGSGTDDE

Key:
[1] = molecular target: KLF4 (human (endogenous in HCC primary spheres)) (UniProt O43474); assay: co-IP; HCC primary spheres, co-IP with KLF4 antibody
[2] = molecular target: ARID1A (human (endogenous in HCC spheres)) (UniProt O14497); assay: co-IP; spheres (S) and non-sphere cells (N) lysed, immunoprecipitation with BAF170 and ARID1A antibodies, BRG1 and BRM by western blotting; also oncosphere lysates with added lncBRM transcripts and lncBRM-depleted spheres
[3] = molecular target: BAF170 (human (endogenous in HCC spheres)) (UniProt Q8TAQ2); assay: as above

## BRG1 (from UniProt P51532 1-1647)
[1]
  binding: binds
[2]
  binding: binds
[3]
  binding: binds

## BRM (from UniProt P51531 1-1590)
[1]
  binding: no binding
[2]
  binding: binds
[3]
  binding: binds
